Data from PubChem BioAssay AID540276 (National Center for Advancing Translational Sciences (NCATS), 2011).
Among all 300,000 compounds or so, about 5,400 (1.8%) were called active. Inconclusive means that the source gave no clear call. Such entries were picked first, then a sample of the others. Calls come from the whole dose curve; tested in HEK293 cells. Where the call is inconclusive, the potency comes from a doubtful curve fit.

Assay: qHTS for inhibitors of binding or entry into cells for Marburg Virus
Conditions: Marburg virus pseudotyped entry inhibition, cell reporter; activity change, negative = inhibition: at 37.8 µM (top of the series) unless noted
% is set by controls: 0 for no effect and ±100 for the full control effect; potency is the fitted concentration of half-maximal effect.

Structure (SMILES)	activity change, negative = inhibition	Potency
COc1ccc(C(=O)Cn2nnc(-c3ccccc3F)n2)cc1	inactive: 2.23%	
COc1ccc(Cl)cc1NC(=O)CN(C)C(=O)c1cc2ccccc2cc1O	inactive: -0.423%	
NC(=O)COC(=O)c1ccc(Cl)c(S(=O)(=O)N(Cc2ccccc2)c2ccc(Cl)cc2)c1		inconclusive: 3.16 µM [inhibitor, partial curve, poor fit]
COc1ccc(C(CNC(=O)c2ccc(S(=O)(=O)N3CC(C)CC(C)C3)cc2)N(C)C)cc1 (stereo not given)		inconclusive: 22.4 µM [inhibitor, single point]
CC1CN(C(=O)c2cccc(COc3ccccc3Cl)c2)CC(C)O1 (stereo not given)		inconclusive: 3.55 µM [activator, single point]
NC(=O)/C=C/C(=O)Nc1ccc(Cl)cc1		inconclusive: 11.2 µM [inhibitor, partial curve, poor fit]
COc1cccc(CN(C)S(=O)(=O)c2cccs2)c1		inconclusive: 7.08 µM [inhibitor, partial curve, poor fit]
COc1ccc(S(=O)(=O)N2CCCCCC2)cc1C(=O)N(C)CC(=O)Nc1ccc(Cl)c(Cl)c1		inconclusive: 2.51 µM [inhibitor, full curve, poor fit]
C=CCn1c(SCC(=O)Nc2ccc(C(=O)O)cc2)nc2scc(-c3ccccc3)c2c1=O	inactive: 16.7%	
CCOc1ccc(NC(=O)N(CCN2CCOCC2)Cc2ccc3c(c2)CCCN3CC)cc1		inactive
COc1cc(OC)cc(C(=O)Nc2cc3nn(-c4ccccc4)nc3cc2Cl)c1		inconclusive: 3.16 µM [activator, partial curve, poor fit]
CC1(c2ccc3noc(-c4cccc(F)c4)c3c2)OCCO1		inconclusive: 3.16 µM [inhibitor, single point]
COc1ccc(CNC(=O)c2ccc3ccccc3n2)cc1OC		inconclusive: 11.2 µM [inhibitor, partial curve, poor fit]
CCN(CC)S(=O)(=O)c1ccc(NC(=O)c2ccc(CN3CCOCC3)cc2)cc1		inconclusive: 8.2 µM [inhibitor, partial curve]
COc1cccc(/C=N/n2c(-c3ccco3)nc3ccccc3c2=O)c1	inactive: 4.94%	
CCN(CC)c1ccc(C(=O)OCC(=O)Nc2ccc3[nH]c(=O)[nH]c3c2)cc1		inconclusive: 35.5 µM [inhibitor, single point]
NC(N)=N/N=C/c1cccc(Cl)c1Cl		inconclusive: 35.5 µM [inhibitor, single point]
CC(Cc1ccccn1)NC(=O)c1ccc(OC2CCN(Cc3ccccn3)CC2)cc1 (stereo not given)		inconclusive: 7.08 µM [activator, partial curve]
C(=C\c1ccccc1)/C=N/Nc1nc2ccccc2[nH]1		inconclusive: 1.64 µM [inhibitor, partial curve, poor fit]
CC(=O)c1ccc(NC(=O)Nc2ccc(Cl)cc2)cc1		inconclusive: 0.58 µM [activator, partial curve, poor fit]
Cc1ccc(CNC(=O)c2ccc(COc3ccccc3)cc2)cc1	inactive: -4.37%	
CCc1ccc(NS(=O)(=O)c2cccc3nsnc23)cc1		inconclusive: 11.2 µM [inhibitor, partial curve, poor fit]

Structure (SMILES)	activity change, negative = inhibition	Potency
Cc1ccc2cc(CN(CCN3CCCC3)C(=O)Nc3ccccc3)c(=O)[nH]c2c1C		inconclusive: 22.4 µM [inhibitor, single point]
CC1=NN(C(=O)Cn2nc([N+](=O)[O-])c(Br)c2C)C(O)(C(F)(F)F)C1 (stereo not given)		inconclusive: 2.82 µM [inhibitor, partial curve, poor fit]
CCOc1cc(-c2nc3ccccn3c2NCC2CCCO2)ccc1O (stereo not given)		inactive
CCOc1ccc(NC(=O)CCS(=O)(=O)c2ccc(C)cc2)cc1		inconclusive: 5.62 µM [inhibitor, single point]
Cc1cc(C)n(C(=O)c2ccc([N+](=O)[O-])c(Cl)c2)n1		inconclusive: 20 µM [inhibitor, partial curve, poor fit]
COc1cc2oc3ccccc3c2cc1N(CC(=O)N1CCCCC1)S(=O)(=O)c1ccc(C)cc1		active: 14.1 µM
COc1ccccc1Oc1nc2c(c(=O)n(C)c(=O)n2C)n1Cc1cccc(Br)c1	inactive: -22.4% [at 46.1 µM]	
O=C1OCCC1Sc1nnc(-c2ccc(O)cc2)o1 (stereo not given)	inactive: -9.15%	
O=C(Nc1cc(S(=O)(=O)N2CCCCC2)ccc1N1CCOCC1)c1ccc(F)cc1		inconclusive: 1.26 µM [activator, single point]
c1ccc(Nc2nc(NCc3ccco3)c3ccccc3n2)cc1		inconclusive: 10 µM [inhibitor, partial curve, poor fit]
CC1=C(C)CC(C(=O)NNC(=O)c2csc(C)c2C)C(C(=O)O)C1 (stereo not given)		inconclusive: 2.51 µM [activator, partial curve, poor fit]
O=C1NC(=O)N(c2ccc(F)cc2)C(=O)/C1=C/c1ccc2c(c1)CCCN2Cc1ccccc1		inconclusive: 6.31 µM [activator, partial curve, poor fit]
CCOC(=O)C1(C)C=C(Nc2ccc(C(N)=O)cc2)C(=O)N1c1ccccc1 (stereo not given)	inactive: 2.29% [at 46.1 µM]	
COC(=O)CN1C(=O)Nc2ccc(Br)cc2C1c1ccccc1Cl (stereo not given)		inconclusive: 35.5 µM [inhibitor, single point]
COc1cc(/C=C/C(=O)c2ccc(NS(=O)(=O)c3ccc(C)cc3)cc2)cc(OC)c1O		inconclusive: 11.2 µM [inhibitor, partial curve, poor fit]
CCOc1ccc(/C=C/C(O)=C2/C(=O)NC3(C)CC2c2ccccc2O3)cc1OC (stereo not given)		inconclusive: 5.8 µM [inhibitor, full curve]
COc1ccccc1C(=O)NCCCNc1ccc([N+](=O)[O-])cc1	inactive: -1.93%	
COc1ccc2c(Sc3ccccc3)c(C(=O)NCc3cccc(OC)c3OC)[nH]c2c1		inconclusive: 35.5 µM [inhibitor, single point]
Cc1ccc2c(c1)c(C)c(C)n2CC(O)CN1CCOCC1 (stereo not given)		inactive
COc1ccc(CCn2cc3c(c2-c2ccccc2Br)c(=O)n(C)c(=O)n3C)cc1OC		inconclusive: 35.5 µM [inhibitor, single point]
Cc1noc(C)c1COC(=O)c1cccc(S(=O)(=O)N2CCCCCC2)c1		active: 8.91 µM
COc1ccc(CN2CCN(C(=O)C3CCC(CNS(=O)(=O)c4ccc(C)cc4)CC3)CC2)c(OC)c1OC (stereo not given)		inconclusive: 22.4 µM [inhibitor, single point]

Structural class: the entries above containing a furan ring, fused or not.
Structure (SMILES)	activity change, negative = inhibition	Potency
COc1cccc(/C=N/n2c(-c3ccco3)nc3ccccc3c2=O)c1	inactive: 4.94%	
COc1cc2oc3ccccc3c2cc1N(CC(=O)N1CCCCC1)S(=O)(=O)c1ccc(C)cc1		active: 14.1 µM
c1ccc(Nc2nc(NCc3ccco3)c3ccccc3n2)cc1		inconclusive: 10 µM [inhibitor, partial curve, poor fit]

(next part)

Structure (SMILES)	activity change, negative = inhibition	Potency
COC(=O)c1ccc(-c2ccc(/C=N/NC(=O)CC3(C)OCCCO3)o2)cc1		inconclusive: 35.5 µM [activator, single point]
Cc1cc(C)c(C(=O)CSc2nc(C)cc(C)c2C(N)=O)c(C)c1	inactive: -20.2%	
Cc1ccc2nc(SCC(=O)NCc3ccc4c(c3)OCO4)nc(=O)n2c1	inactive: 6.3%	
O=[N+]([O-])c1cc(-c2cnc3ccccc3n2)ccc1Cl		inconclusive: 35.5 µM [activator, single point]
CCN(CC)S(=O)(=O)c1cccc(NC(=O)CCNC(=O)NC23CC4CC(CC(C4)C2)C3)c1		inconclusive: 35.5 µM [inhibitor, partial curve, poor fit]
COc1cc(C)c(C(=O)CC(=O)c2c(C)cc(OC)cc2C)c(C)c1		inconclusive: 12.6 µM [inhibitor, partial curve, poor fit]
O=C(Nc1ccc2c(c1)oc1ccccc12)c1ccncc1		inconclusive: 13 µM [inhibitor, partial curve, poor fit]
COc1cccc(/C=N/n2c(-c3n[nH]c4c3CCC4)n[nH]c2=S)c1O		inconclusive: 35.5 µM [activator, single point]
CC(=O)N1CC(=O)Nc2ccc(Cl)cc2C1c1ccc(F)cc1 (stereo not given)		inconclusive: 7.3 µM [activator, partial curve, poor fit]
CC(C)(C)C(=O)NC1CCN(C(=O)N2CCCC2)CC1	inactive: 15%	
Cc1cccc(N2CCN(S(=O)(=O)c3cc(Br)cc4c3N(C(=O)C3CC3)CC4)CC2C)c1 (stereo not given)	inactive: -4.85% [at 46.1 µM]	
CN(c1ccccc1)S(=O)(=O)c1cc(Cl)ccc1Cl		inconclusive: 10 µM [inhibitor, partial curve, poor fit]
O=C(Cc1ccc(S(=O)(=O)N2CCOCC2)s1)Nc1ccccc1N1CCCC1		inconclusive: 0.631 µM [activator, full curve, poor fit]
O=C(CCCc1nc(-c2ccccc2Cl)no1)NCc1cccnc1		inconclusive: 0.517 µM [inhibitor, full curve, poor fit]
CCN(CC)S(=O)(=O)c1ccc(Cl)c(C(=O)Oc2cccnc2)c1	inactive: 0%	
COc1cccc(-c2nc(SCC(=O)Nc3ccc4c(c3)OCO4)c(-c3ccccc3)[nH]2)c1	inactive: -29.8% [at 46.1 µM]	
Cc1ccc(NC(=O)COC(=O)Cc2csc(-c3ccc(Cl)cc3)n2)cc1C	inactive: 21.1%	
CCCc1ccc(S(=O)(=O)NCc2nnc(SC)n2C)cc1		inconclusive: 0.631 µM [inhibitor, full curve, poor fit]
O=C(Nc1ccc(Cl)c(Cl)c1)c1ccc2c(c1)OCO2		inconclusive: 12.6 µM [inhibitor, single point]
CN(C)c1nc(N/N=C\c2ccc(Cl)c([N+](=O)[O-])c2)nc(Nc2ccc(F)cc2)n1		inconclusive: 23.1 µM [inhibitor, partial curve, poor fit]
CCOC(=O)C1CCN(c2ncnc3c2c(-c2ccccc2)cn3-c2ccc(C)cc2)CC1		inconclusive: 1 µM [inhibitor, full curve, poor fit]
